Source: PMC12512898
These are yes or no findings as the source states them, for the method shown. In cells and extracts the contact can be indirect. Some results given as binding are weak or reduced against the parent protein; the word gives no strength.

Protein sequences, listed by entry. Tags and fused reporters are not part of them.
UniProt Q6P5F9: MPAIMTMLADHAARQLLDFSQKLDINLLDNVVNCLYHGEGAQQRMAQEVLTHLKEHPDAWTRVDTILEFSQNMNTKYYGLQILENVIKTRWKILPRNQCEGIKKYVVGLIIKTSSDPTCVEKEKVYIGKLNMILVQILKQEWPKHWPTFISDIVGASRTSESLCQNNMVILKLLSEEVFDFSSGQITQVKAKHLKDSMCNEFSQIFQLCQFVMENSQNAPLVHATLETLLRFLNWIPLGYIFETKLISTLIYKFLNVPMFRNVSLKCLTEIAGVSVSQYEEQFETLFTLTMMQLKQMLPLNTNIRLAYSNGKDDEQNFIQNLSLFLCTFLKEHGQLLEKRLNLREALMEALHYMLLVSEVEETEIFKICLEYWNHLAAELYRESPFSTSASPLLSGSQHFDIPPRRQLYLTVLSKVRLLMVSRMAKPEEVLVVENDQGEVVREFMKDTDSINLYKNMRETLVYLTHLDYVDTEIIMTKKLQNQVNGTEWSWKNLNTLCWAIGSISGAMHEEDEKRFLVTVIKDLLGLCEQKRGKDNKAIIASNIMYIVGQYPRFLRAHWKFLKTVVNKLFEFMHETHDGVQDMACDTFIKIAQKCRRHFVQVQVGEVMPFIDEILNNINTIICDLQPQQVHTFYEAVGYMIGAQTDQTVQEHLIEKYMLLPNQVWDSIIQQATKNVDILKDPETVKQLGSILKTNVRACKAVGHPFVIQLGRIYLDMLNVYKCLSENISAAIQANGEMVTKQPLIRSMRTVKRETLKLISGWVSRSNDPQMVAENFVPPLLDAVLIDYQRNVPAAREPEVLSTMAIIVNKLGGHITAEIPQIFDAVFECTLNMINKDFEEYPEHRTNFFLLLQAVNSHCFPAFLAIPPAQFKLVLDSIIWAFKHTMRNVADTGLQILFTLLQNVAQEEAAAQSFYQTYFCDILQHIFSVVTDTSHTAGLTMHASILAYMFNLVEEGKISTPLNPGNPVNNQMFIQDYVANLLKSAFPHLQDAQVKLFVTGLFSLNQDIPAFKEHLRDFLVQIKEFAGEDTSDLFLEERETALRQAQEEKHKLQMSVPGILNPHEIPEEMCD
UniProt Q04207: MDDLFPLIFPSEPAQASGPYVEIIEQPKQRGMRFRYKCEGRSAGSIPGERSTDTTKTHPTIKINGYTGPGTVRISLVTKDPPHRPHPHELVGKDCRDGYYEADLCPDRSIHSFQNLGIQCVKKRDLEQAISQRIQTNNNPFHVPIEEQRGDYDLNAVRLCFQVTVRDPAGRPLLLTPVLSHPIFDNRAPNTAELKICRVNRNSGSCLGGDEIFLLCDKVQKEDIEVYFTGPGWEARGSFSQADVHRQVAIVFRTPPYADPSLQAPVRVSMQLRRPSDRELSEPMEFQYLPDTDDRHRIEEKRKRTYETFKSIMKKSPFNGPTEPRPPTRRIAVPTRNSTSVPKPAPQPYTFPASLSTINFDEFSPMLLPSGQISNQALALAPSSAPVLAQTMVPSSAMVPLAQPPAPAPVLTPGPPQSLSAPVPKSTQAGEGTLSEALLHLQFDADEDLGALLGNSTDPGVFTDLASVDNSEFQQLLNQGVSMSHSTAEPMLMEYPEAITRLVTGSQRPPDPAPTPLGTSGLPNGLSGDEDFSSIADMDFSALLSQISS

Target: exportin-1 (CRM1) (mouse (endogenous in primary tail fibroblasts)) (UniProt Q6P5F9)
Assay: proximity ligation; Duolink in situ PLA on fixed, permeabilised WT and Hmox1 KO mouse fibroblasts not stimulated with TNFα; anti-p65 (mouse) and anti-CRM1 (rabbit) primary antibodies; cells untreated or treated with olaparib (100 nM, 24 h); nuclear PLA signal quantified

binding: binds
Substance: NF-κB p65 subunit (from UniProt Q04207 1-549)
